For one substance, binding results are on record in paper PMC6421407, “Activation of GCN2 by the ribosomal P-stalk” (Proceedings of the National Academy of Sciences of the …, 2019).

The assay has as its target human P-stalk protein P2 (human) (UniProt P05387). Description: co-expression and co-purification; P-stalk proteins coexpressed in insect cells, purified under nondenaturing conditions by glutathione affinity, anion exchange and gel filtration. (In general: Size exclusion chromatography separates by hydrodynamic size, large species first.)

These are yes or no findings as the source states them, for the method shown. Some binding calls cover weakened binding; strength is not graded here.

As for “human P-stalk protein P1 (from UniProt P05386 1-114)”, the binding entry is given as “binds”.
